Results as given in article PMC3062617.
No constants are given. Whether binding was seen depends on the method and setting. Binding seen in cells or lysates may run through a third protein.

Molecular target: GST-dMP1 fusion protein (Drosophila)
Test: pull-down; GST-dMP1 fusion protein on beads, in vitro translated 35S-Corto, autoradiography; GST beads as control; only the target purified

binding: no binding
B1: in vitro translated 35S-Corto (protein, UniProt P41046 1-550)
chain: MTMAACYANYDMSSLSHGMSALSALQQQQQQQQQQHSQTQQQHHHQQQQQHMYHAAVAAHQQQLLQQQQQQQHHRHHHQPANTSSSSNSRHSHAAATQTQVAAAVANSRQQQQQQQQQQQQQQQQQTASSNSNAAPAPSPQKDYSIPLHVDCSVEYELPNQPKPPAGQRVEPLLMIHPCYFRKMESQRRSPFVNNMHATARAVSSSSLSSGAALGGGGSGAAVATAPSSSAARRGARAATSAQQQQQQQQRYQQQQQQLRQQHQQMSQMSQQAHYPQQQSSLVRQHQQQQQQQQQQQRASSNQSQRQSQSQSQSQSHAANSAAAAAAQASIAAAAAGQWDQLAALAARTALTPHHMLHPHSHYAAKGSGGGAGGGKRDAMISGSYGQTAVASGKLQQSQVQQQQPQQQQQHCLPPPPWDATSMLMDRSPMATVPSNYQAGPDTNPMRLYSATPTAGAASGGSASVGGGGAVSGAGATGAVNTATDKLSGKYRQYLRSQRMHPYAAAASLNLAAAAAAAGQTSFVPFSSAATAVAATPTFQHLPQISCYNV
modifications: 35S label
